Values from PubChem BioAssay AID504793 (Drosophila RNAi Screening Center, 2011).
In all, the deposit lists about 23,000 reagents; below is an unselected part of those that have a named target and a result. In the full data, 62 (0.27%) were called active. 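Calls come from follow-up tests whose scores are not deposited, so confirmed genes may have low counts here; counts are not normalised per plate.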 Raw values are not corrected between plates. A plus sign joins genes that one reagent is predicted to hit.

Purpose: 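Knock-downs allowing continued mitosis even though DNA is damaged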 (primary screen)
Cell system: Drosophila S2R+ cells
Reagents: long dsRNA against Drosophila genes, about 0.25 µg dsRNA per well
Duration: 4 days of dsRNA, then 4 hours of drug before read-out
Treatment: doxorubicin 0.5 µM for 4 hours to cause double-strand breaks, in cells also given a low, harmless dose of dsRNA against nbs to sensitise the assay
Measurement: 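Mitotic index as the number of phospho-histone H3-positive cells in each well following doxorubicin, given as raw counts without normalisation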
Scale: mitotic cells: higher = more cells in mitosis, weaker G2 arrest
Call rule: 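Genes are called active only when high mitotic counts were reproduced with independent dsRNAs and mitosis was checked for delay without damage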
Meaning of the calls: active = confirmed in follow-up tests; inactive = not confirmed

target gene	dsRNA	mitotic cells, replicate 1	call
CG15705	DRSC06576	5	inactive
CG15705	DRSC29360	5	inactive
tor (torso)	DRSC07707	7	inactive
CG9795	DRSC12336	2	inactive
CG9795	DRSC24244	6	inactive
CG17475	DRSC15238	5	inactive
CG17475	DRSC27674	5	inactive
Cyp4ac1 (Cytochrome P450 4ac1)	DRSC03302	6	inactive
Fum3 (Fumarase 3)	DRSC10592	10	inactive
Fum3 (Fumarase 3)	DRSC25432	5	inactive
Ufsp2 (UFM1 specific peptidase 2)	DRSC10231	6	inactive
MRG15 (MORF-related gene 15)	DRSC16731	6	inactive
PH4alphaNE2 (prolyl-4-hydroxylase-alpha NE2)	DRSC16544	7	inactive
PH4alphaNE2 (prolyl-4-hydroxylase-alpha NE2)	DRSC24689	8	inactive
vis (vismay)	DRSC26134	8	inactive
CG13627	DRSC14629	11	inactive
Pdss2 (Decaprenyl diphosphate synthase subunit 2)	DRSC11625	3	inactive
corolla	DRSC20102	3	inactive
SAK (Sak kinase)	DRSC11879	2	inactive
SAK (Sak kinase)	DRSC23329	7	inactive
SAK (Sak kinase)	DRSC29461	4	inactive
Hex-t1 (Hexokinase testis 1)	DRSC16701	11	inactive
Hex-t1 (Hexokinase testis 1)	DRSC26127	8	inactive
Snap29 (Synaptosomal-associated protein 29kDa)	DRSC04721	8	inactive
Snap29 (Synaptosomal-associated protein 29kDa)	DRSC24658	5	inactive
RYa-R (RYamide receptor)	DRSC16757	12	inactive
ry (rosy)	DRSC17048	6	inactive
ry (rosy)	DRSC27399	4	inactive
CG7044	DRSC16180	8	inactive
CenB1A (Centaurin beta 1A)	DRSC16923	19	inactive
CenB1A (Centaurin beta 1A)	DRSC28028	11	inactive
CG7611	DRSC11840	9	inactive
whe (what else)	DRSC20537	6	inactive
whe (what else)	DRSC26236	1	inactive
Cbp80 (cap binding protein 80)	DRSC18450	11	inactive
CG12607	DRSC08287	5	inactive
CG3795	DRSC18593	3	inactive
CG3795	DRSC25687	8	inactive
Exd2 (Exonuclease 3'-5' domain-containing 2)	DRSC16105	5	inactive
Exd2 (Exonuclease 3'-5' domain-containing 2)	DRSC25938	2	inactive
CG8191 + CG12379	DRSC19451	9	inactive
Mal-B2 (Maltase B2)	DRSC02417	5	inactive
lectin-33A	DRSC02529	6	inactive
lectin-33A	DRSC22116	4	inactive
Pmvk (Phosphomevalonate kinase)	DRSC02032	3	inactive

A stretch taken from the entries so far, as a working copy:
target gene	dsRNA	mitotic cells, replicate 1	call
CG13627	DRSC14629	11	inactive
Pdss2 (Decaprenyl diphosphate synthase subunit 2)	DRSC11625	3	inactive
corolla	DRSC20102	3	inactive
